The assay has as its target AdhE (Streptococcus pneumoniae), C-terminally FLAG-tagged, ectopic competence-inducible copy in strain SO007 (Streptococcus pneumoniae) (UniProt Q8DNA5). The assay can be described thus: co-IP + other: negative-stain electron microscopy.

These are yes or no findings as the source states them, for the method shown. Binding seen in cells or lysates may run through a third protein. Some entries that bind do so weakly or less than the wild type. Sequences can lack the tags named with a protein.

B1: AdhE (Streptococcus pneumoniae), C-terminally FLAG-tagged, ectopic competence-inducible copy in strain SO007 (enzyme, UniProt Q8DNA5 1-890)
chain: MKAMEENMADKKTVTPEEKKLVAEKHVDELVQKALVALEEMRKLNQEQVDYIVAKASVAALDAHGELALHAFEETGRGVFEDKATKNLFACEHVVNNMRHTKTVGVIEEDDVTGLTLIAEPVGVVCGITPTTNPTSTAIFKSLISLKTRNPIVFAFHPSAQESSAHAARIVRDAAIAAGAPENCVQWITQPSMEATSALMNHEGVATILATGGNAMVKAAYSCGKPALGVGAGNVPAYVEKSANIRQAAHDIVMSKSFDNGMVCASEQAVIIDKEIYDEFVAEFKSYHTYFVNKKEKALLEEFCFGVKANSKNCAGAKLNADIVGKPATWIAEQAGFTVPEGTNILAAECKEVGENEPLTREKLSPVIAVLKSESREDGITKARQMVEFNGLGHSAAIHTADEELTKEFGKAVKAIRVICNSPSTFGGIGDVYNAFLPSLTLGCGSYGRNSVGDNVSAINLLNIKKVGRRRNNMQWMKLPSKTYFERDSIQYLQKCRDVERVMIVTDHAMVELGFLDRIIEQLDLRRNKVVYQIFADVEPDPDITTVNRGTEIMRAFKPDTIIALGGGSPMDAAKVMWLFYEQPEVDFRDLVQKFMDIRKRAFKFPLLGKKTKFIAIPTTSGTGSEVTPFAVISDKANNRKYPIADYSLTPTVAIVDPALVLTVPGFVAADTGMDVLTHATEAYVSQMASDYTDGLALQAIKLVFENLESSVKNADFHSREKMHNASTIAGMAFANAFLGISHSMAHKIGAQFHTIHGRTNAILLPYVIRYNGTRPAKTATWPKYNYYRADEKYQDIARMLGLPASTPEEGVESYAKAVYELGERIGIQMNFRDQGIDEKEWKEHSRELAFLAYEDQCSPANPRLPMVDHMQEIIEDAYYGYKERPGRRK
Consider B1, for which the binding result is listed as “binds”.

The record behind these values is PMC4398557, “Conserved Streptococcus pneumoniae Spirosomes Suggest a Single Type of Transformation Pilus in Competence” (PLoS Pathogens, 2015).
